This note sets out measurements from article PMC12208548.

Sequences of proteins named here, by UniProt entry; tags and fusion partners are left off. A change or cut given only in a name is not applied to a line headed by its entry.
UniProt Q9UKB1: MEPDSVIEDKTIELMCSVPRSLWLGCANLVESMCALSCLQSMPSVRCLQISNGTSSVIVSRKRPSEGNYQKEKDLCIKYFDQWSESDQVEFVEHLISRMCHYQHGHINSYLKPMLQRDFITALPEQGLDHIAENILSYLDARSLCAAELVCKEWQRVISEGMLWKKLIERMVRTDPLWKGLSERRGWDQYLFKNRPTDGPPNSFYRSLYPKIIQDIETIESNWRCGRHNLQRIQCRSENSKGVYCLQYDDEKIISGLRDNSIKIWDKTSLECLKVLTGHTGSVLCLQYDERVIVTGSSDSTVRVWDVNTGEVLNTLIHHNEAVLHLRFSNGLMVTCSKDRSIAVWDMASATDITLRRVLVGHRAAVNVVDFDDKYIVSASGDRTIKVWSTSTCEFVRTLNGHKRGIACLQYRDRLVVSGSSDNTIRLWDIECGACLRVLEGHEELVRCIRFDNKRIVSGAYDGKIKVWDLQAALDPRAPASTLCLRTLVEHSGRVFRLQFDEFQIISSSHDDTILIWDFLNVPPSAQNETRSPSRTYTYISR
UniProt P21359: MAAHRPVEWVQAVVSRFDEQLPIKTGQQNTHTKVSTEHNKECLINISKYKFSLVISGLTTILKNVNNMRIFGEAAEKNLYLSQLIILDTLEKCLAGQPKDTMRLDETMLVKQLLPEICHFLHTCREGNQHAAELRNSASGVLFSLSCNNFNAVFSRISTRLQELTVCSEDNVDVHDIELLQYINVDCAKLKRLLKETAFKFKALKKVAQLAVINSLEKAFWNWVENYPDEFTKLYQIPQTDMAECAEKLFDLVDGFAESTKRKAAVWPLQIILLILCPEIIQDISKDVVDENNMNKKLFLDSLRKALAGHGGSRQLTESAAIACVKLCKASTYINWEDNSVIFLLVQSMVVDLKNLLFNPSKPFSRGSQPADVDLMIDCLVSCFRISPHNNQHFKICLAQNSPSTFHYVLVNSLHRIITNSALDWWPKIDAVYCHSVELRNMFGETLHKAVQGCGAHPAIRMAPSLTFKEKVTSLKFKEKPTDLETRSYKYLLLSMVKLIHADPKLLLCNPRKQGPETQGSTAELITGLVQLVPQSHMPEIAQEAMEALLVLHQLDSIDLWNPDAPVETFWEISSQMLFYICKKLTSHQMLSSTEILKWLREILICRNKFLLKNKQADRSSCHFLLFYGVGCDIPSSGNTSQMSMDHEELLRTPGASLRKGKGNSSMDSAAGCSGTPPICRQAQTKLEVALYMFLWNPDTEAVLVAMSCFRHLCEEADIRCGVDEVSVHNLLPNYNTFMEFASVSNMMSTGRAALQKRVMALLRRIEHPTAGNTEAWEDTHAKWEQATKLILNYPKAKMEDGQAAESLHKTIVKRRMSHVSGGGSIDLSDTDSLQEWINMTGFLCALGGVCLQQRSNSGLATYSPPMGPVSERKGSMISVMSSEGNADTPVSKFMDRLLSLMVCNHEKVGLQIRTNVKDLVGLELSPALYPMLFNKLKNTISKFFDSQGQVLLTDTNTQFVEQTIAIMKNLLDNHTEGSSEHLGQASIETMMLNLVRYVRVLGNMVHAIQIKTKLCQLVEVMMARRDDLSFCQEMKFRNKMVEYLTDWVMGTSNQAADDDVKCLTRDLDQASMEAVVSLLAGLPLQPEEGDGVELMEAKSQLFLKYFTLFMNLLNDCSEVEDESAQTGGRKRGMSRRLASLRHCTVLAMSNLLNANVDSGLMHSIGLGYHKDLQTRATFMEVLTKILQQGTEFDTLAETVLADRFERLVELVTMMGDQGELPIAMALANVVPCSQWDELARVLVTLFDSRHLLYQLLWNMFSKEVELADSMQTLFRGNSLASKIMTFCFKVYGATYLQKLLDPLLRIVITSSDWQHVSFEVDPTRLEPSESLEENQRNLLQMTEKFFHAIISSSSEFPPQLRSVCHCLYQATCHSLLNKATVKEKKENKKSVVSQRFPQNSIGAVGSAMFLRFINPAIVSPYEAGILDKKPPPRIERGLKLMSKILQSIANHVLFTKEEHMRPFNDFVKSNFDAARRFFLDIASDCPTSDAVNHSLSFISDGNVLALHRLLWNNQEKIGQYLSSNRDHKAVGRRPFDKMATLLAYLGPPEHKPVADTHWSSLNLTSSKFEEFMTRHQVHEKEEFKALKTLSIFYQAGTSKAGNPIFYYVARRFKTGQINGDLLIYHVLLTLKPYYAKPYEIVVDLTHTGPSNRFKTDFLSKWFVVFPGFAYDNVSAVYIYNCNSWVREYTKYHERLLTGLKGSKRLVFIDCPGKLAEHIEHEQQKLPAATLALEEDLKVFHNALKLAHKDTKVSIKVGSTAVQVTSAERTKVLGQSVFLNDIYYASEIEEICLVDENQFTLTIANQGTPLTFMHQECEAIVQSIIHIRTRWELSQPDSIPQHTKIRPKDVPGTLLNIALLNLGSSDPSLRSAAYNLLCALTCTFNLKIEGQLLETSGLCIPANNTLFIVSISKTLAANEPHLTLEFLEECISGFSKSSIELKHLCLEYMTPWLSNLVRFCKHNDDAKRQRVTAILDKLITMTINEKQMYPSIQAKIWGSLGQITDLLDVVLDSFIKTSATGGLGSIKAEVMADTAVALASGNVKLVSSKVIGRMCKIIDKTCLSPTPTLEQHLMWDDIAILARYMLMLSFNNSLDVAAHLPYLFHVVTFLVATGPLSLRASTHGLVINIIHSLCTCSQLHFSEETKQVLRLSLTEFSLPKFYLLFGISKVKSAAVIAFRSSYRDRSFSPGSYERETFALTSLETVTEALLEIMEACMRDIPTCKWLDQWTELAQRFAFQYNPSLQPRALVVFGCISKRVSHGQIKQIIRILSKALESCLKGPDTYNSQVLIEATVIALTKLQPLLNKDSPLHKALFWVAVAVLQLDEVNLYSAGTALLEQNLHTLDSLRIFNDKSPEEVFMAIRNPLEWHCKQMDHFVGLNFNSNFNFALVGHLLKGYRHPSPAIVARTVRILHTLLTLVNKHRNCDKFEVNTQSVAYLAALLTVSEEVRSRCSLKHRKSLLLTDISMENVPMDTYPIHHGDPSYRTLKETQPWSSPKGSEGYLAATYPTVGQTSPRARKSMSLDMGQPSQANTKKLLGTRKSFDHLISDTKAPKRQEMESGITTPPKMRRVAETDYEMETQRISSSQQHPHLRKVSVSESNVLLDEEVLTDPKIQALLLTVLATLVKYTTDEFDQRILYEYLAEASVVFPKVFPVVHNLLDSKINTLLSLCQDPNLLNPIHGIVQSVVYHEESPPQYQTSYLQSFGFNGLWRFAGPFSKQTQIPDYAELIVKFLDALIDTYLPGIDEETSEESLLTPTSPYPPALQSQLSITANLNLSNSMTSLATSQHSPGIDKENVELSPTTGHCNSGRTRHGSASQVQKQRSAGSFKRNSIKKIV

No constants are given. Whether binding was seen depends on the method and setting. In cells and extracts the contact can be indirect. Binding can be weak; no strength is given. For some of these results: Where a sequence is shown, tags or fusion partners need not be part of it.

Assay [1] concerns the target T1, Flag-tagged FBXO3 (human) (UniProt Q9UK99).
T1 sequence: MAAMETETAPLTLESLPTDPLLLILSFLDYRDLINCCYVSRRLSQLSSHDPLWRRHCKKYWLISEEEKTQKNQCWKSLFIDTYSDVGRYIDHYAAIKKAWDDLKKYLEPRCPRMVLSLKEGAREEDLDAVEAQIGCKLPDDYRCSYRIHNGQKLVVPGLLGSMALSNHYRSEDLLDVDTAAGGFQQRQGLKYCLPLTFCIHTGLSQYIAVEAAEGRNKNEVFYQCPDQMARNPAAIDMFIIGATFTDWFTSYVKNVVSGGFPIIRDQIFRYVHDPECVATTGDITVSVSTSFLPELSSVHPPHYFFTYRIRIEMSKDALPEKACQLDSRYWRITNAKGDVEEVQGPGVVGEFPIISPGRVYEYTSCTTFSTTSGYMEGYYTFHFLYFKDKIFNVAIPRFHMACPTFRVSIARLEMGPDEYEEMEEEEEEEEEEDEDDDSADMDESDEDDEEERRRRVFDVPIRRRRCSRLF
Description: co-IP; HEK293T cotransfected with Flag-tagged FBXW11 or FBXO3 and GFP-tagged NF1 domains; MG132 for 6 hours before lysis (15 uM in the legend, 15 mM in the methods); anti-FLAG M2 affinity gel at 4°C overnight; washes with 250 mM NaCl/IP lysis buffer; anti-GFP immunoblotting.

The target in assay [2] is Flag-tagged FBXW11 (human) (UniProt Q9UKB1). Described as above.
For assay [3], the target named is GFP-tagged neurofibromin domain D3 iso1/GRD1 (human) (UniProt P21359). Description: co-IP; HEK293T cotransfected with GFP-tagged GRD1 (wild type or phosphodegron mutants) and Flag-FBXW11; anti-GFP IP 72 hours after transfection; FBXW11 detected by Flag immunoblotting.

“GFP-tagged neurofibromin domain D3 iso2/GRD2 (from UniProt P21359) (domain or fragment)”: the binding result in assay [1] is given as “binds”; in assay [2], “no binding”.

On to “Flag-tagged FBXW11 (from UniProt Q9UKB1 1-542)”, for which the binding result in assay [3] is “binds”.

Consider “GFP-tagged neurofibromin domain D3 iso1/GRD1 (from UniProt P21359-2) (domain or fragment)”, for which the binding entry in assay [2] is “binds”.
